# Percent effect of library compounds

Measurements from “University of Dundee, Small-Polar-MMV Screening Library” (2021), ChEMBL document CHEMBL3988442.

Values are the deposited “Percent Effect”, in %. The controls that fix the scale are not given in the record; negative values are as filed. This is an unselected part of the compounds tested.

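Whole-parasite assay of Trypanosoma brucei over 72 hours; the read-out is not stated. Concentration: 30 µM. Higher reads as stronger inhibition (inferred: compounds with an IC50 in retests scored well above the rest). Values scatter widely below zero; nearly all retest evidence comes from the higher of the two concentrations used. Size under these conditions: about 64,000 compounds, about 940 of them at 50% or above in at least one test.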

| SMILES | effect |
|---|---|
| `CNc1cc(C)nc(N2C[C@@H](C(=O)O)[C@H](C3CC3)C2)n1` | -4.016 |
| `COc1cc(CN2CC(=O)N(c3ccc(C)cc3)CC2C)cc(OC)c1` (stereo not shown) | -11.31 |
| `CC(=O)N1CCN(C(=O)c2ccc3ccn(C)c3c2)CC1` | -28.77 |
| `[H][C@@]12CCN(C(=O)c3scnc3C)CC[C@@]1([H])N(c1cccnc1)CCO2` | -49.65 |
| `COc1cc(-c2nc3c([nH]2)CCCNC3=O)ccc1O` | 4.773 |
| `O=C1c2cccnc2OC(CN2CCOCC2)CN1CC1CC1` (stereo not shown) | -7.898 |
| `COc1ncc(CN(C)C(C)c2cccnc2)cn1` (stereo not shown) | -59.12 |
| `[H][C@@]12CCN(C(=O)N(C)C)[C@]1([H])CC[C@H](C(=O)NC)O2` | -87.22 |
| `Cc1nc(-c2cccs2)ccc1C(=O)N1CCN(CC(C)O)CC1` (stereo not shown) | -7.718 |
| `CCOc1cc(Cl)ccc1CNC(=O)N1CCCC(CO)C1` (stereo not shown) | -4.01 |
| `CCn1c(CC2CCN(S(=O)(=O)Cc3ccccc3)CC2)nn(C)c1=O` | 6.92 |
| `O=C1CC2(CCN(Cc3ccoc3)C2)CN1c1cncnc1` (stereo not shown) | 35.82 |
| `O=C(CC1CCCC1)NCCn1nc2ccccn2c1=O` | -33.68 |
| `O=C(NCc1ccc2c(c1)CCCO2)c1ccccc1C1CCNC1` (stereo not shown) | -18.86 |
| `[H][C@@]12CCCO[C@]1([H])[C@H](Oc1ccccn1)CN2C(=O)CN(C)C` | -41.44 |
| `CCc1cc(N2CCC3(CCCNC3=O)C2)nc(N2CCOCC2)n1` (stereo not shown) | -21.76 |
| `CC1=C[C@@H](CN2CCCC2)[C@H](C(C)C)C[C@H]1Cc1nnc(C)o1` | 17.59 |
| `COc1ccccc1Oc1cncc(C2CCCN(CC(N)=O)C2)n1` (stereo not shown) | -17.95 |
| `CCCc1nc(C(=O)N2C[C@H](CO)C[C@H](CN3CCOCC3)C2)cs1` | -26.03 |
| `Cc1nc(CN(C)C(=O)Nc2cccc(C)c2C)no1` | -18.95 |
| `Oc1ccccc1CN1CCC(n2cc(-c3ccc(F)cc3)nn2)CC1` | -47.66 |
| `CCSCc1nc(O)c2nnn(C3CCN(Cc4ccoc4)CC3)c2n1` | 1.97 |
| `Cc1cccc(CN2CCc3nnc(CN(C)C)n3CC2)n1` | -7.893 |
| `N#Cc1cccc(Cl)c1NC1CCN(CC(N)=O)CC1` | -34.48 |
| `[H][C@@]12COC[C@H](c3nc(C)no3)[C@]1([H])CN(C(=O)Cc1ccsc1)C2` | -31.4 |
| `COc1ccc(OCCN2CCN(Cc3nccn3C)CC2)cc1` | -13.79 |
| `CN1CCN(C2CCN(c3ccnc(-c4ccccc4)n3)CC2)C1=O` | 4.049 |
| `[H][C@@]12CN(Cc3ccc(F)c(F)c3)C[C@]1([H])OCC(=O)N2CC(N)=O` | 6.314 |
| `c1c(-c2nc(CN3CCOCC3)no2)nnn1CC1CCCCC1` | -5.402 |
| `CCc1nnc2n1CCN(Cc1csc(-c3cnn(C)c3)n1)C2` | -47.51 |
| `Brc1cnc(NCc2ccccc2N2CCOCC2)nc1` | -20.89 |
| `COCCN(C)S(=O)(=O)c1cc(C)cc(F)c1` | -8.754 |
| `Cn1c(NC(=O)CNC(=O)C2CC2)nc2cc(Cl)ccc21` | -15.54 |
| `Cc1ccc(C)c(OC(C)C(=O)NCCNc2cccnc2)c1` (stereo not shown) | 3.268 |
| `COCCOCCC(=O)N1CCC(c2ccccc2C)C1` (stereo not shown) | 1.868 |
| `O=S(=O)(c1cn[nH]c1)N1CCCC1c1cc[nH]n1` (stereo not shown) | -10.69 |
| `CN(C)C(=O)c1noc2c1CN(C(=O)CCCN1CCCCC1)CC2` | -55.55 |
| `CCS(=O)(=O)c1ccc(N2CCC(NC(=O)c3ccccn3)CC2)cc1` | -21.15 |
| `CCC(=O)N1CCC2(C=C(C(=O)N3CCCC3)c3ccccc32)CC1` | -20.9 |
| `CCOCC1CN(C(=O)c2cccnc2)Cc2cnn(C)c21` (stereo not shown) | -8.487 |
| `Cn1ccc(C(=O)N2CCOC(c3ccc(C(N)=O)cn3)C2)n1` (stereo not shown) | -2.784 |
| `Cc1cc(N2CCc3c(ncn3C)C2)n2nc(C(F)(F)F)nc2n1` | -24.43 |
| `COCC(=O)N1CCN(C)c2ncccc2C1` | -39.09 |
| `CCN(CC)S(=O)(=O)c1cc2c3c(c1)c(C)cc(=O)n3CCC2` | -13.06 |
| `Cc1nc(C2CCN(S(=O)(=O)c3ccc4c(c3)CCO4)CC2)n[nH]1` | -31.49 |
| `CC(C)(C(=O)NCCS(N)(=O)=O)c1cccc(Br)c1` | -8.167 |
| `CCN1CC2(CCN(CCOCCO)CC2)CC(c2ccccc2)C1=O` (stereo not shown) | 2.734 |
| `Cc1nnsc1C(=O)N1CCCC(n2nnc3cc(F)ccc32)C1` (stereo not shown) | 2.47 |
| `CCN1CCCC1CNC(=O)c1cc(COc2cccc(F)c2)[nH]n1` (stereo not shown) | -52.8 |
| `CNC(=O)[C@@H](C)NC(=O)c1cc(-c2ccc(F)cc2)c(C)s1` | -25.57 |
| `CCc1nc2n(n1)CC(NCc1nc(C)ccc1O)CC2` (stereo not shown) | 15.07 |
| `Cc1cc(C)n(C2CCN(S(C)(=O)=O)CC2)n1` | -23.35 |
| `Cc1cnn(CCNCCCOc2ccccc2)c1` | 29.79 |
| `COCCN1C(=O)CC(c2cccnc2)C12CCN(C(=O)C1CC1)CC2.O=C(O)C(F)(F)F` (stereo not shown) | -65.61 |
| `[H][C@@]12CCN(Cc3nc(C)cs3)C[C@@]1([H])O[C@@H](c1noc(C)n1)C2` | -2.961 |
| `O=C(CCNC(=O)c1ccc(Cl)cc1)NCc1nc(C2CC2)no1` | -113.7 |
| `c1cn(Cc2nnc(C3CCN(C4CCCCC4)CC3)n2C2CC2)cn1` | -22.42 |
| `Nc1nc2c(c(NC(=O)Nc3ccc(Cl)c(Cl)c3)n1)CCCC2` | -22.59 |
| `Cn1nccc1-c1ccc2nc(C3CCNCC3)nn2c1` | -15.7 |
| `COc1ccc(C(=O)N2CCCCC2c2ccccn2)c(OC)n1` (stereo not shown) | -28.15 |
| `COCCNC(=O)c1ccc2ccc(N(C)CC3CC3)n2c1` | -62.1 |
| `Cn1nc2c(cc1=O)CN(c1ncnc3sccc13)CC2` | 10.21 |
| `CN1CC2(CCN(C(=O)c3[nH]cnc3-c3ccccc3)C2)OC1=O` (stereo not shown) | -4.955 |
| `CC(C)c1nnc(NCc2cc3n(n2)CCN(C2CCCCC2)C3)s1` | -11.66 |
| `[H][C@]12CC[C@]([H])(CN(Cc3cccnc3)C1)N(C(=O)Cc1ccncc1)C2` | -46.17 |
| `COc1cccc2c1OCC(C(=O)NCCCn1nc(C)c(Cl)c1C)C2` (stereo not shown) | -136.4 |
| `O=C(CNc1nc(C2CC2)ns1)N1CCc2sccc2C1` | -23.21 |
| `Cn1nccc1CCC(=O)N1CCCC(c2cnccn2)C1` (stereo not shown) | -1.129 |
| `Cc1nc(-c2ccncc2)ncc1C(C)NC(=O)C1=NN(C)C(=O)CC1` (stereo not shown) | 19.49 |
| `CCN1CCN(C(=O)C(C)n2cc(Br)cn2)CC1` (stereo not shown) | -28.61 |
| `COCc1cnc2n1CCN(C(=O)C1=CCCC1)C2C` (stereo not shown) | -30.48 |
| `Cc1cc(C2CCC2)nc(N2CCC3(CC2)OCCCC3O)n1` (stereo not shown) | -6.503 |
| `CC(C)c1nnc2n1CCN(C(=O)c1cccc(C(F)(F)F)c1)C2` | -14.51 |
| `CCC(CO)N(Cc1ccccn1)C(=O)c1ccc(CSC)o1` (stereo not shown) | 7.944 |
| `COc1cc(Cl)ccc1C(=O)N1CCCC(c2cc(C)[nH]n2)C1` (stereo not shown) | -9.565 |
| `COc1ccccc1C(=O)N1CCN(C(=O)CCCc2cn[nH]c2)CC1` | 0.2828 |
| `Cc1cc(CN2CCN(C(=O)NCc3cccs3)CC2)on1` | 19.56 |
| `CC(=O)c1cnc(N(C)Cc2cnc3ccccc3n2)nc1C` | 8.518 |
| `CCn1cc(CN2CCC(CCC(=O)Nc3ccccc3Cl)CC2)cn1` | -23.64 |
| `O=C(NCCc1c[nH]cn1)c1ccc2c(c1)C(=O)N(C1CCCC1)C2=O` | -40.63 |

Some entries from above, unchanged:

| SMILES | effect |
|---|---|
| `COCC(=O)N1CCN(C)c2ncccc2C1` | -39.09 |
| `O=C(NCc1ccc2c(c1)CCCO2)c1ccccc1C1CCNC1` (stereo not shown) | -18.86 |
| `CNC(=O)[C@@H](C)NC(=O)c1cc(-c2ccc(F)cc2)c(C)s1` | -25.57 |
| `CN1CCN(C2CCN(c3ccnc(-c4ccccc4)n3)CC2)C1=O` | 4.049 |
| `[H][C@]12CC[C@]([H])(CN(Cc3cccnc3)C1)N(C(=O)Cc1ccncc1)C2` | -46.17 |
| `COc1cc(-c2nc3c([nH]2)CCCNC3=O)ccc1O` | 4.773 |
| `CCN1CCCC1CNC(=O)c1cc(COc2cccc(F)c2)[nH]n1` (stereo not shown) | -52.8 |
| `CC1=C[C@@H](CN2CCCC2)[C@H](C(C)C)C[C@H]1Cc1nnc(C)o1` | 17.59 |